Source: patent publication US12065512B2 (Igisu Co., Ltd., priority 2015, dated 2024)

Experiment: peptide synthesis
Details: whole synthesis, UV 215 nm

CFGRKMDRISSSSGLGC (cysteine pairing not given here)
final HPLC purity: 99.2%

No end group written: not given here.
